US12491217B2, “Compositions and methods for promoting healthy neural development in an unborn baby” (The Regents of the University of California, priority 2019, dated 2025)

Assay: Metabolomics of fetal brain at E14.5
Assay type: in vivo, C57Bl/6J mice
Settings: E14.5 fetal brain metabolite level; for fold of change ABX/SPF: ANOVA contrast ABX vs SPF; for fold of change GF/ABX: ANOVA contrast GF vs ABX; for fold of change GF/SPF: ANOVA contrast GF vs SPF; for fold of change GF/Sp: ANOVA contrast GF vs Sp; for fold of change Sp/ABX: ANOVA contrast Sp vs ABX; for fold of change Sp/SPF: ANOVA contrast Sp vs SPF

Row | Compound | fold of change ABX/SPF | fold of change GF/ABX | fold of change GF/SPF | fold of change GF/Sp | fold of change Sp/ABX | fold of change Sp/SPF
1 | CCCC(=O)OC(CC(=O)[O-])C[N+](C)(C)C (stereo not drawn) [compound 1446] | 0.93 | 1.23 | 1.15 | 1.07 | 1.15 | 1.07
2 | CCC(=O)OC(CC(=O)[O-])C[N+](C)(C)C (stereo not drawn) [compound 1449] | 0.84 | 1.14 | 0.96 | 1.05 | 1.08 | 0.91
3 | CC(C(=O)O)C(=O)O [compound 1452] | 0.69 | 1.29 | 0.89 | 0.92 | 1.39 | 0.97
4 | CC(=O)OC(CC(=O)[O-])C[N+](C)(C)C (stereo not drawn) [compound 1480] | 0.81 | 1.22 | 0.99 | 1.05 | 1.16 | 0.94
5 | CC(O)CC(=O)OC(CC(=O)[O-])C[N+](C)(C)C (stereo not drawn) [compound 1483] | 0.86 | 1.04 | 0.90 | 1.13 | 0.92 | 0.80
6 | CCCCCC(=O)OC(CC(=O)[O-])C[N+](C)(C)C (stereo not drawn) [compound 1485] | 0.98 | 1.53 | 1.50 | 1.19 | 1.29 | 1.26
7 | CCCC(O)CC(=O)OC(CC(=O)[O-])C[N+](C)(C)C (stereo not drawn) [compound 1487] | 0.86 | 1.06 | 0.91 | 0.97 | 1.10 | 0.95
8 | CCCCCCCC(=O)OC(CC(=O)[O-])C[N+](C)(C)C (stereo not drawn) [compound 1488] | 0.91 | 1.92 | 1.74 | 1.20 | 1.60 | 1.45
9 | CCCCCCCCCCCC(=O)OC(CC(=O)[O-])C[N+](C)(C)C (stereo not drawn) [compound 1495] | 0.82 | 2.17 | 1.77 | 1.29 | 1.68 | 1.37
10 | CCCCCCCCCCCCCC(=O)OC(CC(=O)[O-])C[N+](C)(C)C (stereo not drawn) [compound 1496] | 0.81 | 1.46 | 1.19 | 0.96 | 1.52 | 1.24
11 | CCCCCCCCCCCCCCCC(=O)OC(CC(=O)[O-])C[N+](C)(C)C (stereo not drawn) [compound 1498] | 0.70 | 1.30 | 0.91 | 0.88 | 1.48 | 1.03
12 | CCCCCCC=CCCCCCCCC(=O)OC(CC(=O)[O-])C[N+](C)(C)C (stereo not drawn) [compound 1499] | 0.77 | 1.74 | 1.34 | 1.07 | 1.62 | 1.25
13 | CCCCCCCCCCCCCCCCCC(=O)OC(CC(=O)[O-])C[N+](C)(C)C (stereo not drawn) [compound 1500] | 0.69 | 1.13 | 0.77 | 0.86 | 1.31 | 0.90
14 | CCCCCC=CCC=CCCCCCCCC(=O)OC(CC(=O)[O-])C[N+](C)(C)C (stereo not drawn) [compound 1501] | 0.76 | 2.17 | 1.66 | 1.36 | 1.60 | 1.22
